Some entries share one result that the patent states for a list of compounds.
Target: T1, CCR1 (Homo sapiens, UniProt P32246)
T1 construct: a monocytic derived cell line that endogenously expresses CCR1; host or cells: THP-1 cells
T1 sequence (P32246 1-355): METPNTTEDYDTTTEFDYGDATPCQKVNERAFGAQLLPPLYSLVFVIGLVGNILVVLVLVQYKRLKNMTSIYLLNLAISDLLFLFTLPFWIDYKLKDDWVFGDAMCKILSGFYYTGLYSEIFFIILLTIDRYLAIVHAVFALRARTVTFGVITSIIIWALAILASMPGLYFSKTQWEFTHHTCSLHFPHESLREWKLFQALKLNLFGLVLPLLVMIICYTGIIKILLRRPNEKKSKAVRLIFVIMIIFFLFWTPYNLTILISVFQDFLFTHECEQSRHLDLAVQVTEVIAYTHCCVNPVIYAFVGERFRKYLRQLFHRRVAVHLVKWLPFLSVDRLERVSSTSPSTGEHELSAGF
Test: CCR1 inhibition (THP-1 FLIPR assay / THP-1 whole cell radioligand binding assay; the patent does not say which gave the values)
Type: cell-based
Conditions: threshold list, less than 1 uM; compounds of Table 1; read-out: inhibitory activity
Description: The primary screening assay is a FLIPR® (Fluorometric Imaging Plate Reader, available from Molecular Devices Corporation, Sunnyvale, Calif.) assay using THP-1 cells (ATCC, Catalog No. TIB 202), a monocytic derived cell line that endogenously expresses CCR1.
The cells were resuspended at 1×10^6 cells/ml in dye loading media (growth media (RPMI+10% FBS (Fetal Bovine serum)+5.5×10^−5M 2-mercaptoethanol)+10 mM HEPES (N-2-hydroxyethylpiperazine-N′-2-ethane-sulfonic acid)+2.5 mM probenecid+fluo-3 (1:250)). The cells were incubated for 1 hour at 37° C. and then washed in FLIPR wash buffer (100 mL 10× HBSS (Hanks Buffered Saline Solution) (w/Ca++/Mg++)+20 mL 1M HEPES+1 g BSA+10 mL 250 mM probenecid+water (to make 1 L)) and plated at 50,000 cells/well in black/clear 384 well plates. The plates were transferred to FLIPR where the ability of different concentrations of compounds to inhibit RANTES induced calcium flux was assessed. Inhibition of the CCR1 response was reflected by a decrease of the fluorescence signal relative to the positive controls (RANTES alone).
THP-1 Whole Cell Radioligand Binding Assay
The cells were washed with PBS (phosphate buffered saline) and resuspended in binding buffer (10 mM HEPES pH 7.2, 1× HBSS (w/Ca^2+, Mg^2+) 0.5% BSA, 0.02% Na-azide) at 4×10^6 cells/ml (for 200, 000 cells/well). Cells were incubated with 0.1 to 0.2 nM [^125I]-labeled MIP-1α with or without unlabeled competitor (MIP-1α) or various concentrations of compounds for 60 minutes at room temperature. The assay was terminated by vacuum filtration through glass fiber filters (GF/B, Packard) which were presoaked in 0.3% polyethyleneimine. The filters were washed with wash buffer (10 mM HEPES, pH 7.2, 1 mM CaCl2, 5 mM MgCl2 0.5M NaCl), dried and the amount of bound radioactivity was determined by scintillation counting.

| SMILES | IC50 [nM] |
| --- | --- |
| O[C@H]1CN(c2ncnc3cc(C(F)(F)F)ccc23)C[C@@H]1N1CCN(Cc2ccc(Cl)cc2)CC1 (stereo in doubt) [Example 97, 4-[4-(4-chlorobenzyl)piperazin-1-yl]-1-[7-(trifluoromethyl)quinazolin-4-yl]pyrrolidin-3-ol] | < 1000 |
| Cc1cc(C)nc(N2C[C@@H](O)[C@H](N3CCN(C(=O)c4ccc(Cl)cc4)CC3)C2)n1 (stereo in doubt) [Example 98, 4-[4-(4-chlorobenzoyl)piperazin-1-yl]-1-(4,6-dimethylpyrimidin-2-yl)pyrrolidin-3-ol] | < 1000 |
| Cc1cc(C)nc(N2C[C@@H](O)[C@H](N3CCN(Cc4ccc(Cl)cc4)CC3)C2)n1 (stereo in doubt) [Example 99, 4-[4-(4-chlorobenzyl)piperazin-1-yl]-1-(4,6-dimethylpyrimidin-2-yl)pyrrolidin-3-ol] | < 1000 |
| O=C(c1ccc(Cl)cc1)N1CCN([C@@H]2CN(c3ncnc4cc(F)c(F)cc34)C[C@H]2O)CC1 (stereo in doubt) [Example 102, 4-[4-(4-chlorobenzoyl)piperazin-1-yl]-1-(6,7-difluoroquinazolin-4-yl)pyrrolidin-3-ol] | < 1000 |
| O[C@H]1CN(c2ncnc3cc(F)ccc23)C[C@@H]1N1CCN(Cc2ccc(Cl)cc2)CC1 (stereo in doubt) [Example 103, 4-[4-(4-chlorobenzyl)piperazin-1-yl]-1-(7-fluoroquinazolin-4-yl)pyrrolidin-3-ol] | < 1000 |
| O=C(c1ccc(Cl)cc1)N1CCN([C@@H]2CN(c3nc(Nc4ccc(Cl)cc4)cc(C(F)(F)F)n3)C[C@H]2O)CC1 (stereo in doubt) [Example 106, 4-[4-(4-chlorobenzoyl)piperazin-1-yl]-1-[4-[(4-chlorophenyl)amino]-6-(trifluoromethyl)pyrimidin-2-yl]pyrrolidin-3-ol] | < 1000 |
| Cc1cc(C(F)(F)F)nc(N2C[C@@H](O)[C@H](N3CCN(C(=O)c4ccc(Cl)cc4)CC3)C2)n1 (stereo in doubt) [Example 107, 4-[4-(4-chlorobenzoyl)piperazin-1-yl]-1-[4-methyl-6-(trifluoromethyl)pyrimidin-2-yl]pyrrolidin-3-ol] | < 1000 |
| Cc1cc(C(F)(F)F)nc(N2C[C@@H](O)[C@H](N3CCN(Cc4ccc(Cl)cc4)CC3)C2)n1 (stereo in doubt) [Example 108, 4-[4-(4-chlorobenzyl)piperazin-1-yl]-1-[4-methyl-6-(trifluoromethyl)pyrimidin-2-yl]pyrrolidin-3-ol] | < 1000 |
| O=C(c1ccc(Cl)cc1)N1CCN([C@@H]2CN(c3nc(C(F)(F)F)cc(C(F)(F)F)n3)C[C@H]2O)CC1 (stereo in doubt) [Example 109, 1-[4,6-bis(trifluoromethyl)pyrimidin-2-yl]-4-[4-(4-chlorobenzoyl)piperazin-1-yl]pyrrolidin-3-ol] | < 1000 |
| O=C(c1ccc(Cl)cc1)N1CCN([C@@H]2CN(c3nc(C(F)(F)F)nc4cc(C(F)(F)F)ccc34)C[C@H]2O)CC1 (stereo in doubt) [Example 111, 1-[2,7-bis(trifluoromethyl)quinazolin-4-yl]-4-[4-(4-chlorobenzoyl)piperazin-1-yl]pyrrolidin-3-ol] | < 1000 |
| C[C@@]1(O)CN(c2ncnc3cc(Cl)ccc23)C[C@H]1N1CCN(C(=O)c2ccc(Cl)cc2)CC1 (stereo in doubt) [Example 112, 4-[4-(4-chlorobenzoyl)piperazin-1-yl]-1-(7-chloroquinazolin-4-yl)-3-methylpyrrolidin-3-ol] | < 1000 |
| O=C(c1ccc(Cl)cc1)N1CCN([C@@H]2CN(c3cc(C(F)(F)F)cc(C(F)(F)F)c3)C[C@H]2O)CC1 (stereo in doubt) [Example 113, 1-[3,5-bis(trifluoromethyl)phenyl]-4-[4-(4-chlorobenzoyl)piperazin-1-yl]pyrrolidin-3-ol] | < 1000 |
| O[C@@H]1CN(c2cc(C(F)(F)F)cc(C(F)(F)F)c2)C[C@H]1N1CCN(Cc2ccc(Cl)cc2)CC1 (stereo in doubt) [Example 114, 1-[3,5-bis(trifluoromethyl)phenyl]-4-[4-(4-chlorobenzyl)piperazin-1-yl]pyrrolidin-3-ol] | < 1000 |
| O[C@@H]1CN(c2ncnc3cc(Cl)ccc23)C[C@H]1N1CCN(Cc2ccc(F)cc2)CC1 (stereo in doubt) [Example 115, 1-(7-chloroquinazolin-4-yl)-4-[4-(4-fluorobenzyl)piperazin-1-yl]pyrrolidin-3-ol] | < 1000 |
| CCOC(=O)c1nc(N2C[C@@H](O)[C@H](N3CCN(C(=O)c4ccc(Cl)cc4)CC3)C2)c2ccccc2n1 (stereo in doubt) [Example 116, ethyl 4-{3-[4-(4-chlorobenzoyl)piperazin-1-yl]-4-hydroxypyrrolidin-1-yl}quinazoline-2-carboxylate] | < 1000 |
| O=C(c1ccc(Cl)cc1)N1CCN([C@H]2CN(c3cnc4ccccc4n3)C[C@@H]2O)CC1 (stereo in doubt) [Example 118, 4-[4-(4-chlorobenzoyl)piperazin-1-yl]-1-quinoxalin-2-ylpyrrolidin-3-ol] | < 1000 |
| Cc1nc(C(F)(F)F)nc(N2C[C@@H](O)[C@H](N3CCN(C(=O)c4ccc(Cl)cc4)CC3)C2)c1C (stereo in doubt) [Example 119, 4-[4-(4-chlorobenzoyl)piperazin-1-yl]-1-[5,6-dimethyl-2-(trifluoromethyl)pyrimidin-4-yl]pyrrolidin-3-ol] | < 1000 |
| Cc1nc(C(F)(F)F)nc(N2C[C@@H](O)[C@H](N3CCN(Cc4ccc(Cl)cc4)CC3)C2)c1C (stereo in doubt) [Example 120, 4-[4-(4-chlorobenzyl)piperazin-1-yl]-1-[5,6-dimethyl-2-(trifluoromethyl)pyrimidin-4-yl]pyrrolidin-3-ol] | < 1000 |
| CCc1cc(C(F)(F)F)nc(N2C[C@@H](O)[C@H](N3CCN(C(=O)c4ccc(Cl)cc4)CC3)C2)n1 (stereo in doubt) [Example 121, 4-[4-(4-chlorobenzoyl)piperazin-1-yl]-1-[4-ethyl-6-(trifluoromethyl)pyrimidin-2-yl]pyrrolidin-3-ol] | < 1000 |
| CCc1cc(C(F)(F)F)nc(N2C[C@@H](O)[C@H](N3CCN(Cc4ccc(Cl)cc4)CC3)C2)n1 (stereo in doubt) [Example 122, 4-[4-(4-chlorobenzyl)piperazin-1-yl]-1-[4-ethyl-6-(trifluoromethyl)pyrimidin-2-yl]pyrrolidin-3-ol] | < 1000 |
| CC(C)c1cc(C(F)(F)F)nc(N2C[C@@H](O)[C@H](N3CCN(C(=O)c4ccc(Cl)cc4)CC3)C2)n1 (stereo in doubt) [Example 123, 4-[4-(4-chlorobenzoyl)piperazin-1-yl]-1-[4-isopropyl-6-(trifluoromethyl)pyrimidin-2-yl]pyrrolidin-3-ol] | < 1000 |
| CC(C)c1cc(C(F)(F)F)nc(N2C[C@@H](O)[C@H](N3CCN(Cc4ccc(Cl)cc4)CC3)C2)n1 (stereo in doubt) [Example 124, 4-[4-(4-chlorobenzyl)piperazin-1-yl]-1-[4-isopropyl-6-(trifluoromethyl)pyrimidin-2-yl]pyrrolidin-3-ol] | < 1000 |
| Cc1nc2ccccc2nc1N1C[C@H](O)[C@@H](N2CCN(C(=O)c3ccc(Cl)cc3)CC2)C1 (stereo in doubt) [Example 125, 4-[4-(4-chlorobenzoyl)piperazin-1-yl]-1-(3-methylquinoxalin-2-yl)pyrrolidin-3-ol] | < 1000 |
| O=C(c1ccc(Cl)cc1)N1CCN([C@H]2CN(c3ccc4ccccc4n3)C[C@@H]2O)CC1 (stereo in doubt) [Example 126, 4-[4-(4-chlorobenzoyl)piperazin-1-yl]-1-quinolin-2-ylpyrrolidin-3-ol] | < 1000 |
| O=C(c1ccc(Cl)cc1)N1CCN([C@H]2CN(c3cc(C(F)(F)F)c4ccccc4n3)C[C@@H]2O)CC1 (stereo in doubt) [Example 127, 4-[4-(4-chlorobenzoyl)piperazin-1-yl]-1-[4-(trifluoromethyl)quinolin-2-yl]pyrrolidin-3-ol] | < 1000 |
| O[C@H]1CN(c2cc(C(F)(F)F)c3ccccc3n2)C[C@@H]1N1CCN(Cc2ccc(Cl)cc2)CC1 (stereo in doubt) [Example 128, 4-[4-(4-chlorobenzyl)piperazin-1-yl]-1-[4-(trifluoromethyl)quinolin-2-yl]pyrrolidin-3-ol] | < 1000 |

From patent US7880002B2, “Substituted piperazinyl-pyrrolidine compounds useful as chemokine receptor antagonists” (Millennium Pharmaceuticals, Inc., priority 2004, dated 2011)
